# Measurements from paper PMC12040169 (PLOS Biology, 2025).
# The list shows a part of the results.
# Test system: T1, CTL2-GFP (C. trachomatis L2/434/Bu, GFP-expressing)
# T1 construct: L2/434/Bu, GFP-expressing
# Set-up: species or system HeLa; Intracellular C. trachomatis growth in HeLa cells, bulk GFP fluorescence relative to DMSO
# Conditions: bulk GFP, single well; 28.5 h, 10 µM; inhibitor
row,Compound,% of control remaining
1,CCC1CCCCN1C(=O)c1cccc(C)n1 (stereo not drawn) [CBK076750],112.959%
2,COc1ccc(S(=O)(=O)N2CCOCC2)cc1C(=O)Nc1ccc2c(c1)OCO2 [CBK265548],110.664%
3,Cc1ccncc1C(=O)NCc1ccccc1 [CBK200193],102.734%
4,COc1cc(CNC2CCCc3c2cnn3C)cc(OC)c1 (stereo not drawn) [CBK304306C],140.178%
5,Nc1ncc(-c2ccc(C(=O)N3CCOCC3)cc2)nc1-c1cccnc1 [CBK126356],115.086%
6,COc1cccc(NC(=O)CC(CN2CCN(Cc3ccccn3)CC2)C(=O)O)c1 (stereo not drawn) [CBK286735],128.826%
7,CC(C)Nc1nc2ccccc2nc1OCCC#N [CBK115735],109.352%
8,COc1ccc(C(=O)NC(N2CCCCC2)C(Cl)(Cl)Cl)cc1 (stereo not drawn) [CBK087021],100%
9,c1coc(-c2cc(Nc3ccc4[nH]ccc4c3)ncn2)c1 [CBK090862],97.8709%
10,O=S(=O)(Nc1nc(CCNCCO)cs1)c1ccc(Oc2ccccc2)cc1 [CBK034632],103.614%
11,CCOC(=O)c1cccnc1-c1cccc(C(N)=O)c1 [CBK149239],125.417%
12,O=S(=O)(Nc1nccnc1N1CCN(c2ccccc2)CC1)c1ccc(F)cc1 [CBK048706],111.794%
13,COC(=O)CC1(C)C(=O)CCC2(C)C1=CCc1ccccc12 (stereo not drawn) [CBK006547],123.839%
14,O=C(CC1CCCC1)NCCn1nc(-c2cccs2)oc1=O [CBK282386],137.031%
15,O=[N+]([O-])c1cc(F)ccc1Oc1cccc(Cl)c1Cl [CBK002604],107.461%
16,CN1CCCN(c2cncc(-c3cccnc3)n2)CC1 [CBK037215],143.554%
17,CN(CC(=O)NNC(=O)c1cccs1)S(=O)(=O)c1ccc2ccccc2c1 [CBK267409],117.544%
18,COc1ncc(-c2ccc(NCCn3cc[nH]c3=O)nc2)c(OC)n1 [CBK037719],110.31%
19,CC1(C)CC(N(Cc2ccccc2)C(=O)Cc2ccco2)CCO1 (stereo not drawn) [CBK019561],110.506%
20,O=[N+]([O-])c1ccc2[nH]c3c(c2c1)CCCC3NC1CCN(CCc2ccccc2)CC1 (stereo not drawn) [CBK262874],24.7593%
21,CC(CNS(=O)(=O)c1ccc(N2CCCC2=O)cc1)Cn1cccn1 (stereo not drawn) [CBK304656],108.614%
22,Cc1ccc(-n2c(=O)[nH]cc(C(=O)Nc3cccc(Cl)c3C)c2=O)cc1C [CBK287551],135.617%
23,c1csc(N2CCCN(c3nccn4cnnc34)CC2)n1 [CBK305190],104.872%
24,CCOc1cccc(NC(=O)/C(C#N)=C\c2cc(C)n(-c3ccc4c(c3)OCO4)c2C)c1 [CBK263191],120.969%
25,Cc1oc2ccc(O)cc2c1C(=O)N(C)CCN1CCCCC1 [CBK282158],128.374%
26,Cn1cc(C2CNCCN2C(=O)c2coc3ccccc23)cn1 (stereo not drawn) [CBK304270C],104.168%

# Random excerpt: four compounds from above.
row,Compound,% of control remaining
5,Nc1ncc(-c2ccc(C(=O)N3CCOCC3)cc2)nc1-c1cccnc1 [CBK126356],115.086%
18,COc1ncc(-c2ccc(NCCn3cc[nH]c3=O)nc2)c(OC)n1 [CBK037719],110.31%
10,O=S(=O)(Nc1nc(CCNCCO)cs1)c1ccc(Oc2ccccc2)cc1 [CBK034632],103.614%
12,O=S(=O)(Nc1nccnc1N1CCN(c2ccccc2)CC1)c1ccc(F)cc1 [CBK048706],111.794%

# Remaining list, next part.

row,Compound,% of control remaining
1,CS(=O)(=O)Nc1cccc(C2=NN(C(=O)CCC(=O)O)C(c3cccc(F)c3)C2)c1 (stereo not drawn) [CBK268804],160.368%
2,O=S(=O)(NCc1cccc(Cl)c1)c1csc2ccnc(N3CCNCC3)c12 [CBK045595C],135.16%
3,CCn1c(CC2CCN(C(=O)CCn3cc(C)cn3)CC2)nn(C)c1=O [CBK307584],145.624%
4,Cc1ccccc1-c1ccccc1CC1(C(N)=O)CCN(C(=O)c2cccc(F)c2)CC1 [CBK285726],119.405%
5,CC(C)c1ccc(S(=O)(=O)N2CCN(c3ccc(C#N)cc3)CC2)cc1 [CBK044404],61.6819%
6,CCCS(=O)(=O)NC(C)c1cnn(-c2ccc(OC)cc2)c1C (stereo not drawn) [CBK307319],100.305%
7,CCCc1nn(CC(=O)NC2CC2)c(=O)c2cc3ccsc3n12 [CBK284146],111.237%
8,O=C(Cc1c[nH]c2ccccc12)N1CCC2(CCN(C(=O)c3ccc4[nH]c(=O)[nH]c4c3)C2)C1 (stereo not drawn) [CBK131452],100%
9,O=C(NCc1cccnc1)C1CCCN(c2nc3c(-c4ccccc4)csc3c(=O)[nH]2)C1 (stereo not drawn) [CBK215492],88.9283%
10,Cc1cc(C(=O)Nc2sc(C)c(C)c2C(=O)NCc2cccnc2)no1 [CBK268134],98.1672%
11,CN1CCN(CCC(=O)N/N=C/c2ccsc2)CC1 [CBK261505],100%
12,CCOc1cc2c(cc1OCC)C(c1ccc(OC)c(O)c1)NCC2 (stereo not drawn) [CBK074443C],119.375%
13,Cc1noc(C)c1S(=O)(=O)NCc1ccc(C(F)(F)F)c(F)c1 [CBK062112],91.0986%
14,COc1ccc(CCN2C(=O)N[C@@H](CCC(=O)NC3CC3)C2=O)cc1 [CBK288001],85.7098%
15,COc1ccccc1CN(CC(C)(C)CN)C(=O)Nc1ccc(C)c([N+](=O)[O-])c1 [CBK026816C],126.432%
16,COc1ccc(Nc2cc(-c3cccc(N)c3)ncn2)c(C)c1 [CBK091035],137.73%
17,COc1cccc(CNCCN2CCOCC2)c1O [CBK278183C],124.398%
18,CC(O)CNc1nccnc1-c1cccc(CO)c1 (stereo not drawn) [CBK037056],100%
19,Nc1nncn1C(=O)c1ccccc1SCc1ccccc1 [CBK270120],140.513%
20,O=C1CCCN1CCCNc1nccnc1-c1ccc(CO)cc1 [CBK036860],119.855%
21,COc1ccc(NC(=O)Nc2cc3cccnc3c(Br)n2)c(C)c1 [CBK063294],100%
22,Cc1nnc(Sc2cccc(C(F)(F)F)n2)s1 [CBK115222],100%
23,CC(=O)N1CCOC(CNc2nc(C(C)(C)C)nc3c2cnn3C)C1 (stereo not drawn) [CBK307469],118.953%
24,CCCCNc1cc(C)nc2c(-c3ccccc3)cnn12 [CBK287792],95.7863%
25,CC(C)(C)OC(=O)N1CCC(OCc2cn(-c3ccc(S(C)(=O)=O)cc3)nn2)CC1 [CBK149478],114.061%
